Results published in article PMC10495264 (Nature Cell Biology, 2023).
These are yes or no findings as the source states them, for the method shown. In cells and extracts the contact can be indirect. Some results given as binding are weak or reduced against the parent protein; the word gives no strength. For part of these data: Sequences can lack the tags named with a protein.

Chains of the proteins cited; added tags and fusions are not shown.
UniProt P38873: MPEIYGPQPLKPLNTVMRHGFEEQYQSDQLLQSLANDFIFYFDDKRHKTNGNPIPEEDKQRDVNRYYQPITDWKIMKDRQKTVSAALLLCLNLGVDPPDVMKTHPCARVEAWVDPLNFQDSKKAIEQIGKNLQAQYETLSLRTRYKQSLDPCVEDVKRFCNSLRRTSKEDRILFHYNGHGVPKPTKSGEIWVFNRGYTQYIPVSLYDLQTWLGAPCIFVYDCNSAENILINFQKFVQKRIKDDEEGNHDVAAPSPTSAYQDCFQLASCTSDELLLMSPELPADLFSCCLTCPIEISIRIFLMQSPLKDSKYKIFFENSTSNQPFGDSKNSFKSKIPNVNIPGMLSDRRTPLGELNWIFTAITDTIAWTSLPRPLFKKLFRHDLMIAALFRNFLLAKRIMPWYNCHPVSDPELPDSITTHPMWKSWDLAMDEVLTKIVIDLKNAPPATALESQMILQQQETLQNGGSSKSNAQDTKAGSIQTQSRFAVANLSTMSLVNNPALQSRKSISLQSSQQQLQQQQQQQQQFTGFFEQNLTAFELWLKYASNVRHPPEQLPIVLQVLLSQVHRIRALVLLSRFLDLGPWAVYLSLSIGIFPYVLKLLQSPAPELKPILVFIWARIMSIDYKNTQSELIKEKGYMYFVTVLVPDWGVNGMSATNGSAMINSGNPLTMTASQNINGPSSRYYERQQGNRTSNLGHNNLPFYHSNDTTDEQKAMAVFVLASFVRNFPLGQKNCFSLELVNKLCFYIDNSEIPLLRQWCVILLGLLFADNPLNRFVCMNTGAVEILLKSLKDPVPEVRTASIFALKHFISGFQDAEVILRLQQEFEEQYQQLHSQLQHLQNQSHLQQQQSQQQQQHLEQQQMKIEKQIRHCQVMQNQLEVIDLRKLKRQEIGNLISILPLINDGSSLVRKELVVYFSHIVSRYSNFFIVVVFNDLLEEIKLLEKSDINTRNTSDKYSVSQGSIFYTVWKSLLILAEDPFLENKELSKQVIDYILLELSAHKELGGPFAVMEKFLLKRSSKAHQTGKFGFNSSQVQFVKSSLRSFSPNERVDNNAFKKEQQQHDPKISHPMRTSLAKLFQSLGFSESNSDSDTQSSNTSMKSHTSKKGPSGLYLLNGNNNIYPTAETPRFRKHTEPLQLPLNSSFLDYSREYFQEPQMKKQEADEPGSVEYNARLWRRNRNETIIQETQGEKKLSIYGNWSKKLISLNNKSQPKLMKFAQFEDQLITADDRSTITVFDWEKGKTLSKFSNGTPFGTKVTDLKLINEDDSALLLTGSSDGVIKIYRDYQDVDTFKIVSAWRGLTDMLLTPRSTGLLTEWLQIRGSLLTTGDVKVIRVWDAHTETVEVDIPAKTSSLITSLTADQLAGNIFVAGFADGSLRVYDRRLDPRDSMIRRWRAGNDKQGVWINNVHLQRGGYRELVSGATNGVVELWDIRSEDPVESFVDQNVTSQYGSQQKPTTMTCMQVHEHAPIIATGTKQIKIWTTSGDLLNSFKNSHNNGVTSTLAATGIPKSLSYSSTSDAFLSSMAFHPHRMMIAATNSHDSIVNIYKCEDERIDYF
UniProt P07149: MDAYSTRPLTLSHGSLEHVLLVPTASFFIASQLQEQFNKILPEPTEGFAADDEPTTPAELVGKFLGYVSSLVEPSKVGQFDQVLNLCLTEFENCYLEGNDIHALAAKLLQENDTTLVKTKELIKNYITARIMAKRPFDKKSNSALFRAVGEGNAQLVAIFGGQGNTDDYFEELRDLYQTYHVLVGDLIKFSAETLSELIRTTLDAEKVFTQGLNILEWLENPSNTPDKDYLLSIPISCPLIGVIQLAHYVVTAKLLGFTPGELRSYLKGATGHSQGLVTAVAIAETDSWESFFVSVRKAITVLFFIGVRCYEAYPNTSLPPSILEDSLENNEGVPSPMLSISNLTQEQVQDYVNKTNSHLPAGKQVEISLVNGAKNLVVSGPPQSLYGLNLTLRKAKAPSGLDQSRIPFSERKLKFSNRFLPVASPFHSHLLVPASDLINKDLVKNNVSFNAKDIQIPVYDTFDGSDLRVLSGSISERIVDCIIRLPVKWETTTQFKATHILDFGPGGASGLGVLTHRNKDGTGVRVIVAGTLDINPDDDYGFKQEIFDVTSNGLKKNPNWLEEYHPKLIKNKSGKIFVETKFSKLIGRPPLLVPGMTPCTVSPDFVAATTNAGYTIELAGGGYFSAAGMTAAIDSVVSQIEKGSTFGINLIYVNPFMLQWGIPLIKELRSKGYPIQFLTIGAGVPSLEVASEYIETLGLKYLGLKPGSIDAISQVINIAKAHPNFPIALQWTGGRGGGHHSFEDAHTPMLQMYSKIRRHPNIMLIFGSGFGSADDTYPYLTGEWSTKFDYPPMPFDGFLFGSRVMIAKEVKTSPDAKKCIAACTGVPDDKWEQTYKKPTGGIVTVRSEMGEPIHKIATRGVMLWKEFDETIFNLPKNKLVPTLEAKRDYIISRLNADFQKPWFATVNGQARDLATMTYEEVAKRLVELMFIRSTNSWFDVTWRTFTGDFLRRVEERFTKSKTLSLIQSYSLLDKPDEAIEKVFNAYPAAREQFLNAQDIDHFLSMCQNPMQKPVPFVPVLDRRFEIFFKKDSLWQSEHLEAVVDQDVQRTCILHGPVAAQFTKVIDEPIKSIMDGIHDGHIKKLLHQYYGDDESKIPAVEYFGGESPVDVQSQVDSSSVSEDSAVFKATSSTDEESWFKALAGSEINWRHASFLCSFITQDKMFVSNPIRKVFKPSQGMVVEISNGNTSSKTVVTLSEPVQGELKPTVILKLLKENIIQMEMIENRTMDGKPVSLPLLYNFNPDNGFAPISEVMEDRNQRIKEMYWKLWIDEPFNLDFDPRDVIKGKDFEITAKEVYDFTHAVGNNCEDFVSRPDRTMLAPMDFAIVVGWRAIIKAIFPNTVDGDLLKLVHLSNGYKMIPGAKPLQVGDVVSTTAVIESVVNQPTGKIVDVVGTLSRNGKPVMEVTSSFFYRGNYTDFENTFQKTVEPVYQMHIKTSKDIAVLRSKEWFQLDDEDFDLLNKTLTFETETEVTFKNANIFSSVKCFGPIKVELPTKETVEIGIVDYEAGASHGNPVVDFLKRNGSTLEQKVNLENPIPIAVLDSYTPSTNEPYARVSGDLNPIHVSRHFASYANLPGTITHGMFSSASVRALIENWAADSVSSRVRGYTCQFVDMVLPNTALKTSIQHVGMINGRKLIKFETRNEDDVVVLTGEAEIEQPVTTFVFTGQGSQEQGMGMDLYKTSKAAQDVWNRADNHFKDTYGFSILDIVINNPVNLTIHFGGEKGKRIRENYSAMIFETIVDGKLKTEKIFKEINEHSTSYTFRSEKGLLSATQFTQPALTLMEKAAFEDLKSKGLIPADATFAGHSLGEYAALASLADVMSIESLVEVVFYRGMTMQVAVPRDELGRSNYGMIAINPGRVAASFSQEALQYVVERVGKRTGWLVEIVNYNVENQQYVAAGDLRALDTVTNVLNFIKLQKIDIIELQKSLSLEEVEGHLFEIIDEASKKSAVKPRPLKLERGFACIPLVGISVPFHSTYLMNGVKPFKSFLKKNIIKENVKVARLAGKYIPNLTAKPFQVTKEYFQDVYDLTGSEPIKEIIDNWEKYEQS
UniProt Q00955: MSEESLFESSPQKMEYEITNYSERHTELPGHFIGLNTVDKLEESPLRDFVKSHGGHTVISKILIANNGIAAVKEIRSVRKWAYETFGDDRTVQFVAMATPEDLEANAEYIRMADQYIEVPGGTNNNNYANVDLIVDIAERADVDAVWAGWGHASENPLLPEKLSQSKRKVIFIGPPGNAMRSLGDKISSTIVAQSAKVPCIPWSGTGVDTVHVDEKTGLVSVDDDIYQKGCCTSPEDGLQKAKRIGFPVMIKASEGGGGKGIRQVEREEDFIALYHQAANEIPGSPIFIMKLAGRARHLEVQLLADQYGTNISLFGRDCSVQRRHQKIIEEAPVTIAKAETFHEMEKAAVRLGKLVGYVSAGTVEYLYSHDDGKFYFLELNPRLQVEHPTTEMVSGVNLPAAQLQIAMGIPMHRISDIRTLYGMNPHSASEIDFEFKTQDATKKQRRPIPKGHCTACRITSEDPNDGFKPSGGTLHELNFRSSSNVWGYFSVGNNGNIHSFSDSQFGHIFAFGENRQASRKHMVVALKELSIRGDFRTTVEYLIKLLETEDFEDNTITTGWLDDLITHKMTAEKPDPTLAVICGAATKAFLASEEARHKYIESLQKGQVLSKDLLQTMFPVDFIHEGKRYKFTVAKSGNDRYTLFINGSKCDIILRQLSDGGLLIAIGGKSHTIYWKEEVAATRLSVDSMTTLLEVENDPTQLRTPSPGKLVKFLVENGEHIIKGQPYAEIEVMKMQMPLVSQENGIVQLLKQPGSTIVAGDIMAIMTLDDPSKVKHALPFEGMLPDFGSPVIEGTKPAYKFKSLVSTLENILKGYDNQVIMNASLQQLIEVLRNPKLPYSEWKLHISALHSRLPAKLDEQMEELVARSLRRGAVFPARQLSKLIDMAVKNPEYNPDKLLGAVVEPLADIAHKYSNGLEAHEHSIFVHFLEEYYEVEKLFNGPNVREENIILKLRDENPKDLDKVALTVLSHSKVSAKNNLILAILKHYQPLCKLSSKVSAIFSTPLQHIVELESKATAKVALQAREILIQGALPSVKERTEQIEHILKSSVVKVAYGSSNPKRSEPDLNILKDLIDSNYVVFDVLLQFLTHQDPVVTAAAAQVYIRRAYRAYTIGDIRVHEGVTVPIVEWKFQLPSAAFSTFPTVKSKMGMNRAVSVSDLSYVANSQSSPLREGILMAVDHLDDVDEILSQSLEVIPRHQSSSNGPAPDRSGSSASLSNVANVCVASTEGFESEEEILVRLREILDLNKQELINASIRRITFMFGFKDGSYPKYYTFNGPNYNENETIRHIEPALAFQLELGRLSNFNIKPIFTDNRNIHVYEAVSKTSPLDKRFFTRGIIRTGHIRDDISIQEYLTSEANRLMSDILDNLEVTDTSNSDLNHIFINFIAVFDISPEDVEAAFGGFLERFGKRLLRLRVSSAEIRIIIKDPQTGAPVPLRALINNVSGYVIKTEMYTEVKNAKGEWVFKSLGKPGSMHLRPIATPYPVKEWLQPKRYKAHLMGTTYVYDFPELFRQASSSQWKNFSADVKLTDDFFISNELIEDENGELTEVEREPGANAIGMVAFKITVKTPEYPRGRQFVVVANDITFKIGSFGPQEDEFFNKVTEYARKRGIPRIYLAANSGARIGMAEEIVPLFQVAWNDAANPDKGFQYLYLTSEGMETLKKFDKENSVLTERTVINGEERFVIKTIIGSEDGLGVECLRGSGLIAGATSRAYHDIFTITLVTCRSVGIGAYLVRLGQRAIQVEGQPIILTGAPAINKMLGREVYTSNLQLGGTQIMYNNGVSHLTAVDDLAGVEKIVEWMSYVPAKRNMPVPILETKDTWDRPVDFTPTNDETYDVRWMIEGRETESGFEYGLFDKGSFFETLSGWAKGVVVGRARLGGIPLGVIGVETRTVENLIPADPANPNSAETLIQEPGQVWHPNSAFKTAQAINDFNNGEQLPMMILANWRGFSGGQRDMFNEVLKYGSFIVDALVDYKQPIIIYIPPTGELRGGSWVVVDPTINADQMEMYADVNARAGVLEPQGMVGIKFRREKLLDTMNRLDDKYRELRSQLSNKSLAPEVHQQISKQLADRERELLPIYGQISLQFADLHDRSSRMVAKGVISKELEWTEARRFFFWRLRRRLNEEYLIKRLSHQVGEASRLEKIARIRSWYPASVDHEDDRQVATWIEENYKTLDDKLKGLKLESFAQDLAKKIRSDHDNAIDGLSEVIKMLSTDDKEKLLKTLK

Experiments:
[1] = biological target: Kog1–HA3 (Saccharomyces cerevisiae) (UniProt P38873); test: co-IP; anti-HA magnetic beads on cleared lysates of yeast with genomically tagged proteins (wild type and gtr1Δ gtr2Δ), 2 h at 4 °C; washes with 300 mM NaCl, 10% glycerol, 0.1% Nonidet P40; immunoblot
[2] = biological target: T1, Tco89–HA3 (Saccharomyces cerevisiae) (UniProt Q08921); test: as above
T1 sequence: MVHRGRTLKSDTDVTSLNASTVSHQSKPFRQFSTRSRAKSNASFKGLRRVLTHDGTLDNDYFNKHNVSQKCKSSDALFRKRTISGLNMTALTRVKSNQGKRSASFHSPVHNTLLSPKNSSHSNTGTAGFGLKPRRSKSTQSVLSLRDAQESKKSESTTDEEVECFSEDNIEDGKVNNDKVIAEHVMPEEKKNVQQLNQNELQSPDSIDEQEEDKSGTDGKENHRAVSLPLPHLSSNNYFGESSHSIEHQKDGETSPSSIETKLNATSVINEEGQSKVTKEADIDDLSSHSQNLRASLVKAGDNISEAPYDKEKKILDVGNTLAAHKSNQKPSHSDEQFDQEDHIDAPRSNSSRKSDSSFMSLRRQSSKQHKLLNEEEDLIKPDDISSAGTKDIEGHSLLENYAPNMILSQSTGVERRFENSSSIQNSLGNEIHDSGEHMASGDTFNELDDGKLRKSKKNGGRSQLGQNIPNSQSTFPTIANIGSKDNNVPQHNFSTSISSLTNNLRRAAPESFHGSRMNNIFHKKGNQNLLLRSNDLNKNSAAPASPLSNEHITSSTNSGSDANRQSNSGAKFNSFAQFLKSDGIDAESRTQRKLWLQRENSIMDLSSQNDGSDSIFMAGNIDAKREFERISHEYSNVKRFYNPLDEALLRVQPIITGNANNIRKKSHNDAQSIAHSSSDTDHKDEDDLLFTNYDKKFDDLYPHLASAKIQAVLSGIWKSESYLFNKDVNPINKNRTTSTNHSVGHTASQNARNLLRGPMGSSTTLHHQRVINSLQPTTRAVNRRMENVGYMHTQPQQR

binding [1]	binding [2]	Substance
binds		Fas1–myc13 (from UniProt P07149 1-2051) (enzyme)
binds	binds	Acc1–myc13 (from UniProt Q00955 1-2233) (enzyme)
